According to US9394519B2, “Methods to produce mast cell culture” (Apollonian Biosystems Limited, priority 2011, dated 2016):
Some results were stated once for a whole list of compounds, not compound by compound. At least one compound was matched to its structure with a doubt left.

Tested on: mast cell tryptase
Assay: Cell-based assay for screening tryptase inhibitors (MCP-1 degradation in medium of anti-IgE-stimulated mast cells)
Parameters: species or system human
Settings: 6-hour reaction medium of anti-IgE-stimulated mast cells incubated with inhibitor at 37° C. for 16 hours; FIG. 7
Procedure: Primary human mast cells with functional phenotype of connective tissue-type mast cells were derived from peripheral blood using the protocol described in Example 1. Cells were stimulated via the high-affinity IgE receptors (FcERI) using an anti-IgE antibody and kept under various conditions (see conditions A to G below) for 6 hours and 16 hours. The supernatants were then collected and the MCP-1 level in the supernatants was determined.

## NC(=O)[C@@H]1CCCN1C(=O)[C@H](CCCN=C(N)N)NC(=O)c1ccc2ccccc2c1O [APC366]
  Inhibition of the degradation of MCP-1 in the reaction medium: 90-95%
